Some results were stated once for a whole list of compounds, not compound by compound.
Tested on: Phytophthora infestans
Format: in vivo
Conditions: 200 ppm, tomato leaf disks, preventative, inoculated 1 day after application, assessed 5-7 days after application

| SMILES | control of Phytophthora infestans (percent disease control compared to untreated) |
| --- | --- |
| COc1cc(C)nc(-c2cccc(CCCO/N=C(\C)c3cc(C)cc(C)n3)n2)c1 [P.13] | at least 80% |
| COc1cc(C)nc(-c2cccc(CCCO/N=C(\C)c3nc(C)cc(C)n3)n2)c1 [P.44] | at least 80% |
